The list shows a part of the results. Many values rest on one well or one pass, so single values are uncertain.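 Imaging used 1,536-well plates; nuclei positive for cleaved PARP by antibody were divided by total DNA-stained nuclei to yield the apoptosis fraction. Doses for screening kept most cells viable, and cell lines differ markedly in resting and induced cleaved-PARP levels.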
Legend:
Assay in all cases: cleaved PARP positive nuclei fraction relative to DMSO control; melanoma cells; higher = more apoptosis
Conditions in all cases: library dose: low library concentration; 72 h
MZ2-MEL = test system: MZ2-MEL
MeWo = test system: MeWo
RPMI7951 = test system: RPMI7951
RVH-421 = test system: RVH-421
SkMel28 = test system: SkMel28
SkMel2 = test system: SkMel2
SkMel30 = test system: SkMel30
UACC62 = test system: UACC62

Cc1cc(Nc2cc(N3CCN(C)CC3)nc(Sc3ccc(NC(=O)C4CC4)cc3)n2)n[nH]1 [Tozasertib] + C[As](C)SC[C@H](NC(=O)CC[C@H](N)C(=O)O)C(=O)NCC(=O)O [Darinaparsin] (first compound 0.006 µM, partner dose 0.4 µM)
cleaved PARP positive nuclei fraction (MZ2-MEL): 31.7%
cleaved PARP positive nuclei fraction (MeWo): 171%
cleaved PARP positive nuclei fraction (RPMI7951): 43.1%
cleaved PARP positive nuclei fraction (RVH-421): 158%
cleaved PARP positive nuclei fraction (SkMel28): 176%
cleaved PARP positive nuclei fraction (SkMel2): 88.1%
cleaved PARP positive nuclei fraction (SkMel30): 18.3%
cleaved PARP positive nuclei fraction (UACC62): 97.6%

N.N.[Cl][Pt][Cl] [cisplatin] + COc1ccc(Cl)c(Nc2nc3ccccc3nc2NS(=O)(=O)c2cccc(NC(=O)C(C)(C)N)c2)c1 [XL147] (first compound 1.6 µM, partner dose 0.8 µM)
cleaved PARP positive nuclei fraction (MZ2-MEL): 89%
cleaved PARP positive nuclei fraction (MeWo): 185%
cleaved PARP positive nuclei fraction (RPMI7951): 64.8%
cleaved PARP positive nuclei fraction (RVH-421): 122%
cleaved PARP positive nuclei fraction (SkMel28): 187%
cleaved PARP positive nuclei fraction (SkMel2): 80.6%
cleaved PARP positive nuclei fraction (SkMel30): 103%
cleaved PARP positive nuclei fraction (UACC62): 150%

O=c1[nH]nc(Sc2ncc([N+](=O)[O-])s2)n1-c1ccc2c(c1)OCCO2 + N.N.[Cl][Pt][Cl] [cisplatin] (first compound 0.2 µM, partner dose 1.6 µM)
cleaved PARP positive nuclei fraction (MZ2-MEL): 66.3%
cleaved PARP positive nuclei fraction (MeWo): 103%
cleaved PARP positive nuclei fraction (RPMI7951): 52.8%
cleaved PARP positive nuclei fraction (RVH-421): 139%
cleaved PARP positive nuclei fraction (SkMel28): 85.3%
cleaved PARP positive nuclei fraction (SkMel2): 58.3%
cleaved PARP positive nuclei fraction (SkMel30): 71%
cleaved PARP positive nuclei fraction (UACC62): 180%

Cn1cc(C2=C(c3cn(C4CCN(Cc5ccccn5)CC4)c4ccccc34)C(=O)NC2=O)c2ccccc21 [Enzastaurin] + CCCCCCCCc1ccc(CCC(N)(CO)CO)cc1 [fingolimod] (first compound 0.8 µM, partner dose 2 µM)
cleaved PARP positive nuclei fraction (MZ2-MEL): 47.2%
cleaved PARP positive nuclei fraction (MeWo): 28.9%
cleaved PARP positive nuclei fraction (RPMI7951): 38.2%
cleaved PARP positive nuclei fraction (RVH-421): 73.3%
cleaved PARP positive nuclei fraction (SkMel28): 49.9%
cleaved PARP positive nuclei fraction (SkMel2): 61.1%
cleaved PARP positive nuclei fraction (SkMel30): 69.7%
cleaved PARP positive nuclei fraction (UACC62): 266%

C[As](C)SC[C@H](NC(=O)CC[C@H](N)C(=O)O)C(=O)NCC(=O)O [Darinaparsin] + Cn1c(Nc2ccc(C(F)(F)F)cc2)nc2cc(Oc3ccnc(-c4ncc(C(F)(F)F)[nH]4)c3)ccc21 [CHIR265] (first compound 0.4 µM, partner dose 0.08 µM)
cleaved PARP positive nuclei fraction (MZ2-MEL): 81.6%
cleaved PARP positive nuclei fraction (MeWo): 118%
cleaved PARP positive nuclei fraction (RPMI7951): 83.6%
cleaved PARP positive nuclei fraction (RVH-421): 262%
cleaved PARP positive nuclei fraction (SkMel28): 149%
cleaved PARP positive nuclei fraction (SkMel2): 87.4%
cleaved PARP positive nuclei fraction (SkMel30): 118%
cleaved PARP positive nuclei fraction (UACC62): 233%

CS(=O)(=O)CCNCc1ccc(-c2ccc3ncnc(Nc4ccc(OCc5cccc(F)c5)c(Cl)c4)c3c2)o1 [lapatinib] + C[As](C)SC[C@H](NC(=O)CC[C@H](N)C(=O)O)C(=O)NCC(=O)O [Darinaparsin] (first compound 0.8 µM, partner dose 0.4 µM)
cleaved PARP positive nuclei fraction (MZ2-MEL): 99.4%
cleaved PARP positive nuclei fraction (MeWo): 117%
cleaved PARP positive nuclei fraction (RPMI7951): 37.7%
cleaved PARP positive nuclei fraction (RVH-421): 136%
cleaved PARP positive nuclei fraction (SkMel28): 101%
cleaved PARP positive nuclei fraction (SkMel2): 64.3%
cleaved PARP positive nuclei fraction (SkMel30): 172%
cleaved PARP positive nuclei fraction (UACC62): 179%

Cn1cc(C2=C(c3cn(C4CCN(Cc5ccccn5)CC4)c4ccccc34)C(=O)NC2=O)c2ccccc21 [Enzastaurin] + CCN(CC)CCNC(=O)c1c(C)[nH]c(/C=C2\C(=O)Nc3ccc(F)cc32)c1C [sunitinib] (first compound 0.8 µM, partner dose 0.4 µM)
cleaved PARP positive nuclei fraction (MZ2-MEL): 157%
cleaved PARP positive nuclei fraction (MeWo): 65%
cleaved PARP positive nuclei fraction (RPMI7951): 208%
cleaved PARP positive nuclei fraction (RVH-421): 41%
cleaved PARP positive nuclei fraction (SkMel28): 195%
cleaved PARP positive nuclei fraction (SkMel2): 147%
cleaved PARP positive nuclei fraction (SkMel30): 43.9%
cleaved PARP positive nuclei fraction (UACC62): 150%

CN1CCN(c2ccc3nc(-c4c(N)c5c(F)cccc5[nH]c4=O)[nH]c3c2)CC1 [Dovitinib] + C[As](C)SC[C@H](NC(=O)CC[C@H](N)C(=O)O)C(=O)NCC(=O)O [Darinaparsin] (first compound 0.1 µM, partner dose 0.4 µM)
cleaved PARP positive nuclei fraction (MZ2-MEL): 375%
cleaved PARP positive nuclei fraction (MeWo): 134%
cleaved PARP positive nuclei fraction (RPMI7951): 107%
cleaved PARP positive nuclei fraction (RVH-421): 105%
cleaved PARP positive nuclei fraction (SkMel28): 58.8%
cleaved PARP positive nuclei fraction (SkMel2): 94.1%
cleaved PARP positive nuclei fraction (SkMel30): 314%
cleaved PARP positive nuclei fraction (UACC62): 132%

C[As](C)SC[C@H](NC(=O)CC[C@H](N)C(=O)O)C(=O)NCC(=O)O [Darinaparsin] + COCC[n+]1c2c(n(Cc3cnccn3)c1C)C(=O)c1ccccc1C2=O [YM155] (first compound 0.4 µM, partner dose 0.0004 µM)
cleaved PARP positive nuclei fraction (MZ2-MEL): 75.8%
cleaved PARP positive nuclei fraction (MeWo): 180%
cleaved PARP positive nuclei fraction (RPMI7951): 62.5%
cleaved PARP positive nuclei fraction (RVH-421): 120%
cleaved PARP positive nuclei fraction (SkMel28): 104%
cleaved PARP positive nuclei fraction (SkMel2): 146%
cleaved PARP positive nuclei fraction (SkMel30): 66.5%
cleaved PARP positive nuclei fraction (UACC62): 134%

CC[C@]1(O)C[C@H]2CN(CCc3c([nH]c4ccccc34)[C@@](C(=O)OC)(c3cc4c(cc3OC)N(C=O)[C@H]3[C@@](O)(C(=O)OC)[C@H](OC(C)=O)[C@]5(CC)C=CCN6CC[C@]43[C@@H]65)C2)C1 [vincristine] + C[As](C)SC[C@H](NC(=O)CC[C@H](N)C(=O)O)C(=O)NCC(=O)O [Darinaparsin] (first compound 0.0001 µM, partner dose 0.4 µM)
cleaved PARP positive nuclei fraction (MZ2-MEL): 197%
cleaved PARP positive nuclei fraction (MeWo): 322%
cleaved PARP positive nuclei fraction (RPMI7951): 112%
cleaved PARP positive nuclei fraction (RVH-421): 187%
cleaved PARP positive nuclei fraction (SkMel28): 386%
cleaved PARP positive nuclei fraction (SkMel2): 141%
cleaved PARP positive nuclei fraction (SkMel30): 129%
cleaved PARP positive nuclei fraction (UACC62): 946%

COc1cc([C@@H]2c3cc4c(cc3[C@@H](O[C@@H]3O[C@@H]5CO[C@@H](C)O[C@H]5[C@H](O)[C@H]3O)[C@H]3COC(=O)[C@H]23)OCO4)cc(OC)c1O [etoposide] + C[As](C)SC[C@H](NC(=O)CC[C@H](N)C(=O)O)C(=O)NCC(=O)O [Darinaparsin] (first compound 0.02 µM, partner dose 0.4 µM)
cleaved PARP positive nuclei fraction (MZ2-MEL): 20%
cleaved PARP positive nuclei fraction (MeWo): 194%
cleaved PARP positive nuclei fraction (RPMI7951): 86%
cleaved PARP positive nuclei fraction (RVH-421): 178%
cleaved PARP positive nuclei fraction (SkMel28): 85.1%
cleaved PARP positive nuclei fraction (SkMel2): 88.1%
cleaved PARP positive nuclei fraction (SkMel30): 55.2%
cleaved PARP positive nuclei fraction (UACC62): 63.9%

Cn1sc(=O)n(Cc2ccccc2)c1=O + N.N.[Cl][Pt][Cl] [cisplatin] (first compound 0.4 µM, partner dose 1.6 µM)
cleaved PARP positive nuclei fraction (MZ2-MEL): 180%
cleaved PARP positive nuclei fraction (MeWo): 315%
cleaved PARP positive nuclei fraction (RPMI7951): 69.7%
cleaved PARP positive nuclei fraction (RVH-421): 56.9%
cleaved PARP positive nuclei fraction (SkMel28): 73.4%
cleaved PARP positive nuclei fraction (SkMel2): 98.4%
cleaved PARP positive nuclei fraction (SkMel30): 150%
cleaved PARP positive nuclei fraction (UACC62): 58.2%

— the supplement of paper PMC4604168 (melanoma cell lines)
